PubChem BioAssay AID330 (DTP/NCI, 2004)
The list is a part of this screen's results and no random one: it gathers tests that were run many times, whatever their T/C, doses with no T/C, and many T/C values between a quarter and a half above the control. Other doses and runs of a compound stand elsewhere. T/C is the treated group as % of the vehicle group. Some doses have a count of surviving animals in place of a T/C: the source holds a T/C of zero for them, seemingly a mark for toxic or unscored doses. Some survivor counts are full or nearly so, which does not show that the dose was tolerated: survival well below the control is almost never listed, so the zero probably covers shortened survival too. Counts of survivors are from the toxicity check (mostly the fifth day) where no day follows; animals may have died later. Schedules are NCI's codes, taken here to give the interval after Q, in days (D) or hours (H), and the number of doses after X. Some molecules as drawn cover several salts, stereoisomers or complexes of the source; a dose is that of the sample tested. Some doses were run more than once; their values stand side by side, smallest first. Signs of the kind (2×) count equal records among those shown. For survival time, the PubChem record calls one and a half times the control and up active, and a quarter to a half above the control has no call in these data; cut-offs in other NCI protocols can differ. Some T/C values carry the count of animals alive at the toxicity check (mostly the fifth day); where none is given, no animal had died by that day.

Tested on: P388 leukemia ip, CD2F1 mice, survival T/C
Experiment: NCI In Vivo Anticancer Drug Screen. Data for tumor model P388 Leukemia (intraperitoneal) in CD2F1 (CDF1) mice
Details: T/C endpoint: median survival time, higher T/C = longer survival
[1] = dose: 2400.0 mg/kg/injection, schedule: Q01DX005 (ip), vehicle: saline
[2] = dose: 120.0 mg/kg/injection, schedule: Q01DX005 (ip), vehicle: saline with Tween-80
[3] = dose: 240.0 mg/kg/injection, schedule: Q01DX005 (ip), vehicle: saline with Tween-80
[4] = dose: 50.0 mg/kg/injection, schedule: Q01DX009 (ip), vehicle: Klucel (hydroxypropylcellulose) (HPC)
[5] = dose: 100.0 mg/kg/injection, schedule: Q01DX009 (ip), vehicle: Klucel (hydroxypropylcellulose) (HPC)
[6] = dose: 200.0 mg/kg/injection, schedule: Q01DX009 (ip), vehicle: Klucel (hydroxypropylcellulose) (HPC)
[7] = dose: 100.0 mg/kg/injection, schedule: Q01DX009 (ip), vehicle: saline with Tween-80
[8] = dose: 50.0 mg/kg/injection, schedule: Q01DX009 (ip), vehicle: saline with Tween-80
[9] = dose: 100.0 mg/kg/injection, schedule: Q01DX005 (ip), vehicle: saline
[10] = dose: 50.0 mg/kg/injection, schedule: Q01DX009 (ip), vehicle: saline
[11] = dose: 100.0 mg/kg/injection, schedule: Q01DX009 (ip), vehicle: saline
[12] = dose: 200.0 mg/kg/injection, schedule: Q01DX009 (ip), vehicle: saline
[13] = dose: 240.0 mg/kg/injection, schedule: Q01DX005 (ip), vehicle: saline
[14] = dose: 1.56 mg/kg/injection, schedule: Q01DX009 (ip), vehicle: saline

NCCCn1ccc2c3ccccc3nc-2c1
survivor count (dose: 200.0 mg/kg/injection, schedule: Q01DX009 (ip), vehicle: water): 3 of 6

C[C@H](N)C(=O)N[C@@H]1[C@H]2C(=C(O)C[C@@H](O)[C@@H]2O)C(=O)O[C@@H]1C
T/C (dose: 150.0 mg/kg/injection, schedule: Q01DX005 (ip), vehicle: saline): 135 % of control
T/C (dose: 300.0 mg/kg/injection, schedule: Q01DX005 (ip), vehicle: saline, evaluated on day 20): 137 % of control
T/C (dose: 300.0 mg/kg/injection, schedule: Q01DX005 (ip), vehicle: saline, evaluated on day 30): 108, 126, 130 % of control
T/C (dose: 300.0 mg/kg/injection, schedule: Q01DX005 (ip), vehicle: suspension in saline): 127 % of control
T/C (dose: 600.0 mg/kg/injection, schedule: Q01DX005 (ip), vehicle: saline, evaluated on day 20): 153 % of control
T/C (dose: 600.0 mg/kg/injection, schedule: Q01DX005 (ip), vehicle: saline, evaluated on day 30): 142, 151, 160 % of control
T/C (dose: 1200.0 mg/kg/injection, schedule: Q01DX005 (ip), vehicle: saline, evaluated on day 20): 173 % of control
T/C (dose: 1200.0 mg/kg/injection, schedule: Q01DX005 (ip), vehicle: saline, evaluated on day 30): 146, 165, 167 % of control
survivor count (dose: 1200.0 mg/kg/injection, schedule: Q01DX005 (ip), vehicle: suspension in saline): 3 of 6
T/C [1]: 195 % of control [5 of 6 alive]
survivor count [1]: 2 of 6 (2×) and 3 of 6
survivor count (dose: 2400.0 mg/kg/injection, schedule: Q01DX005 (ip), vehicle: suspension in saline): 1 of 6

C=CC(=NC(C)(C)C)N(CC)CC
survivor count [2]: 0 of 6
survivor count [3]: 0 of 6

O=C1C=CC(=O)N1n1cccc1
survivor count [4]: 0 of 6
survivor count [5]: 0 of 6
survivor count [6]: 0 of 6

FC(F)(F)c1cccc(N=c2ccn3ccccc3c2)c1
survivor count [7]: 1 of 6
survivor count (dose: 200.0 mg/kg/injection, schedule: Q01DX009 (ip), vehicle: saline with Tween-80): 0 of 6

CC1CCC2C(C)C3C(CC4C5CC=C6CC(OC7OC(CO)C(O)C(OC8OC(CO)C(O)C(O)C8O)C7OC7OC(C)C(O)C(O)C7O)CCC6(C)C5CCC43C)N2C1 (stereo not drawn)
survivor count (dose: 50.0 mg/kg/injection, schedule: Q01DX005 (ip), vehicle: Klucel (hydroxypropylcellulose) (HPC)): 0 of 5
survivor count (dose: 100.0 mg/kg/injection, schedule: Q01DX005 (ip), vehicle: Klucel (hydroxypropylcellulose) (HPC)): 0 of 5
survivor count (dose: 200.0 mg/kg/injection, schedule: Q01DX005 (ip), vehicle: Klucel (hydroxypropylcellulose) (HPC)): 0 of 5
survivor count (dose: 200.0 mg/kg/injection, schedule: Q04DX003 (ip), vehicle: suspension in saline): 6 of 6

COc1ccc(/C=C2/SC(=S)N(Cc3ccco3)C2=O)cc1
survivor count (dose: 25.0 mg/kg/injection, schedule: Q01DX009 (ip), vehicle: saline with Tween-80): 6 of 6
survivor count [8]: 6 of 6
survivor count [7]: 6 of 6

CC(C)(C)NC1=C([N+](=O)[O-])CCCC1
survivor count (dose: 200.0 mg/kg/injection, schedule: Q01DX005 (ip), vehicle: saline with Tween-80): 3 of 6

Cc1ccc(S(=O)(=O)N=N/C=C2/C=CC=CN2O)cc1
T/C [4]: 127 % of control
T/C [5]: 131 and 148 % of control
survivor count [6]: 3 of 6

O=c1[nH]oc(=O)[nH]1
survivor count [9]: 6 of 6

CCOc1ccccc1N=Nc1c(C)nn(C(=S)SC)c1OCC
survivor count (dose: 120.0 mg/kg/injection, schedule: Q01DX005 (ip), vehicle: Klucel + Tween-80): 6 of 6
survivor count (dose: 240.0 mg/kg/injection, schedule: Q01DX005 (ip), vehicle: Klucel + Tween-80): 6 of 6

CCOc1cc2c(cc1Cc1ccc(OC)cc1OC)OCO2
T/C [2]: 131 % of control
T/C [3]: 137 % of control
T/C (dose: 480.0 mg/kg/injection, schedule: Q01DX005 (ip), vehicle: saline with Tween-80): 133 % of control

CCCCC(CCCCCC(CCCC)C1NC(C)Cc2cc(OC)c(OC)cc21)C1NC(C)Cc2cc(OC)c(OC)cc21 (stereo not drawn)
survivor count (dose: 50.0 mg/kg/injection, schedule: Q01DX005 (ip), vehicle: suspension in saline): 3 of 5
survivor count (dose: 100.0 mg/kg/injection, schedule: Q01DX005 (ip), vehicle: suspension in saline): 2 of 5
survivor count (dose: 200.0 mg/kg/injection, schedule: Q01DX005 (ip), vehicle: suspension in saline): 0 of 5

CC/C(C)=N/NC(=S)NC
survivor count [10]: 4 of 6
survivor count [11]: 0 of 6
survivor count [12]: 0 of 6

Nc1nc(N)c2cc(CNc3ccc(C(=O)NC(CC(=O)O)CC(=O)O)cc3)ccc2n1
T/C [8]: 145 % of control
survivor count (dose: 300.0 mg/kg/injection, schedule: Q01DX009 (ip), vehicle: saline with Tween-80): 6 of 6

COc1ccc(C(=O)N2C=CC(=Cc3ccccc3)C=C2)cc1
survivor count [4]: 2 of 6
survivor count [5]: 2 of 6
survivor count [6]: 1 of 6

CN1CCC(c2ccccc2)=C(Br)C1
survivor count [13]: 0 of 6

CCCCCCCCCCCCCC[N+]1(CC)CCCCC1
T/C (dose: 0.78 mg/kg/injection, schedule: Q01DX009 (ip), vehicle: saline): 125 % of control [5 of 6 alive]
T/C [14]: 136 % of control
survivor count [14]: 3 of 6
survivor count (dose: 3.12 mg/kg/injection, schedule: Q01DX009 (ip), vehicle: saline): 5 of 6
survivor count (dose: 3.12 mg/kg/injection, schedule: Q04DX003 (ip), vehicle: saline): 1 of 6
survivor count (dose: 6.25 mg/kg/injection, schedule: Q01DX009 (ip), vehicle: saline): 4 of 6
survivor count (dose: 6.25 mg/kg/injection, schedule: Q04DX003 (ip), vehicle: saline): 2 of 6
survivor count (dose: 12.5 mg/kg/injection, schedule: Q01DX009 (ip), vehicle: saline): 1 of 6
survivor count (dose: 12.5 mg/kg/injection, schedule: Q04DX003 (ip), vehicle: saline): 0 of 6
survivor count [10]: 0 of 6
survivor count [11]: 0 of 6
survivor count [12]: 0 of 6

CCCC1CCCC[N+]1(C)[B-](F)(F)F (stereo not drawn)
survivor count (dose: 50.0 mg/kg/injection, schedule: Q01DX005 (ip), vehicle: saline): 3 of 6
survivor count [9]: 0 of 6
survivor count (dose: 200.0 mg/kg/injection, schedule: Q01DX005 (ip), vehicle: saline): 0 of 6

O=C1c2cc3c(-c4ccccc4)sc(-c4ccccc4)c3cc2C(=O)c2c(O)ccc(O)c21
survivor count (dose: 100.0 mg/kg/injection, schedule: Q04DX002 (ip), vehicle: saline with Tween-80): 6 of 6
survivor count (dose: 200.0 mg/kg/injection, schedule: Q04DX002 (ip), vehicle: saline with Tween-80): 6 of 6

c1ccc(C(NC2CC3CCC2C3)c2ccccc2)cc1 (stereo not drawn)
survivor count (dose: 150.0 mg/kg/injection, schedule: Q01DX009 (ip), vehicle: saline with Tween-80): 2 of 6

Cc1ccc(Oc2ccc(C(=O)C(CN(C)C)CN(C)C)cc2)cc1
survivor count (dose: 15.0 mg/kg/injection, schedule: Q01DX005 (ip), vehicle: saline): 6 of 6
survivor count (dose: 30.0 mg/kg/injection, schedule: Q01DX005 (ip), vehicle: saline): 6 of 6
survivor count (dose: 60.0 mg/kg/injection, schedule: Q01DX005 (ip), vehicle: saline): 0 of 6
survivor count (dose: 120.0 mg/kg/injection, schedule: Q01DX005 (ip), vehicle: saline): 0 of 6
survivor count [13]: 0 of 6

O=S1(=O)C2CCC(Cl)C1CCC2Cl (stereo not drawn)
survivor count (dose: 300.0 mg/kg/injection, schedule: Q04DX003 (ip), vehicle: Klucel (hydroxypropylcellulose) (HPC)): 2 of 6
